From patent US20260076973A1 (priority 2023, published 2026)
At least one structure is not confirmed: it was looked up by name or label, or the drawing left a doubt.

Test system: SARS-CoV-2 (WA1)
Assay type: cell-based
Conditions: SARS-CoV-2 CPE assay

CCC(CC)COC(=O)[C@H](C)N[P@](=O)(OC[C@H]1O[C@@](C#N)(c2ccc3c(N)ncnn23)[C@H](O)[C@@H]1O)Oc1ccccc1 [Remdesivir, reference compound]
antiviral effect of positive controls in the CPE assay: dose dependent antiviral effect
